Results are given in words; binding and its absence hold for the method and conditions named.
Molecular target: EsaB (Staphylococcus aureus) (UniProt Q99WU1)
Experiment: SEC; final size exclusion step, 24 ml Superdex75 column, 20 mM Tris pH 7.8, 100 mM NaCl, calibrated with molecular mass standards; both purified

For EsaB (from UniProt Q99WU1 1-80), the binding was “no binding”.

From PMC5845737
